# Out of some 2,300 compounds screened, about 1,200 (52%) were called active. The set was probably picked from earlier hits. Inconclusive results, whose numbers are uncertain, are shown with a selection of clear calls. Calls come from the whole dose curve; as a rule, active = well fitted inhibition curve with a large enough effect; inconclusive = small, poorly fitted or top-dose-only effect, or effect the other way; inactive = no such curve, though single readings can be large or run the other way. Potencies beside an inconclusive call are fits to weak or partial responses and may not hold up.
# Assay: Confirmation screen for delayed death inhibitors of the malarial parasite plastid, 48 hour incubation; note: nearly all actives have a fitted effect of over 65% in size
# Details: P. falciparum-infected erythrocytes, luciferase growth; series mostly up to 28.7 µM; activity change, negative = inhibition: at the top concentration
# Text: The goal of this screen is to discover new antimalarial compounds that act by inhibiting the development of the apicoplast in the malarial parasite Plasmodium falciparum. The biochemical processes that make this organelle essential for erythrocytic stage parasites are not well understood. However, antibiotics, such as azithromycin and tetracycline, which target the apicoplast translational machinery, have a potent antimalarial effect. […] We have developed a cell-based assay that measures parasite growth based on the expression of an integrated copy of a firefly luciferase reporter. To detect small molecules that cause this "delayed death phenotype, erythrocytes infected with the luciferase-expressing parasites were incubated with compounds for either one or two generations, corresponding to 48 and 96 hours, respectively. Compounds that inhibit parasite growth in the second generation, but not the first, should be enriched in antimalarials that target the apicoplast. Growth inhibition is detected by a decrease in luciferase activity. MLPCN Grant: R21 NS059500 Assay Provider: David Fidock and Eric Ekland, Columbia University Keywords: NIH Roadmap, MLPCN, MLI, MLSMR, qHTS, NCGC, qHTS, malaria, luciferase, viability
# Four microliters of culture medium (RPMI 1640 with 0.5% w/v Albumax (GIBCO), 24 mM sodium bicarbonate and 10 ug/mL gentamycin) were dispensed by a Multi-drop Combi into white solid 1536-well plates (Grenier) and 23 nL compound was added by a pin tool. Four microliters of infected erythrocytes (2% hematocrit, 0.1% parasitemia final concentration) in culture medium were dispensed and the plates incubated for 48 hours at 37 C in 5% CO2. Two microliters of luciferase detection reagent was added and luminescence was detected by a ViewLux (PerkinElmer) reader.
# % is set by controls: 0 for no effect and ±100 for the full control effect; potency is the fitted concentration of half-maximal effect.
SMILES,Potency,"activity change, negative = inhibition"
CCn1c(CNc2ccc(F)cc2)nnc1SCC(=O)Nc1ccc(OC)cc1OC,"inconclusive: 8.91 µM [inhibitor, partial curve]",–
O=C(CSc1nnc(-c2ccccc2Cl)o1)N1CCCC1,"inconclusive: 3.98 µM [activator, partial curve]",–
Cc1ccc(CSCC(=O)Nc2ccccc2C(=O)O)cc1,"inconclusive: 14.1 µM [activator, partial curve]",–
Cc1cccc(-c2c(NC(=O)c3ccco3)oc3ccc(Cl)cc3c2=O)c1,–,inactive: -26.2%
Cc1cc(C)c(C(=O)NC2CCCc3c2cnn3-c2cccc(C)c2C)o1 (stereo unspecified),"inconclusive: 17.8 µM [inhibitor, partial curve, poor fit]",–
O=C(Nc1ccccc1C(=O)Nc1ccccc1C(=O)O)c1ccccc1,–,inactive: -29.2%
C#CCOCCOCCOCCNc1nc(N2CCN(C(=O)Cn3cc(CC(C)O)nn3)CC2)nc(N2CCN(C(=O)[C@H]([C@@H](C)CC)n3cc(CCCN=C(N)N)nn3)CC2)n1 (stereo partly specified),"inconclusive: 10 µM [inhibitor, partial curve, poor fit]",–
CC1CCCCN1C(=O)COC(=O)c1cccc(NS(=O)(=O)c2ccccc2)c1 (stereo unspecified),–,inactive: -8.12%
CN1CCN(C(=O)CCN2C(=O)/C(=C\c3ccc(Cl)cc3)SC2=S)CC1,–,inactive: -20.3%
COc1ccccc1-c1coc2cc(OC(=O)N3CCOCC3)ccc2c1=O,–,inactive: 7.66%
O=C(Nc1ccc2ccccc2c1)c1ccc(Br)o1,"inconclusive: 2 µM [activator, full curve]",–
Cn1nc(-c2ccccc2)c(CN2CCN(c3ncccn3)CC2)c1Cl,"inconclusive: 20 µM [inhibitor, partial curve, poor fit]",–
COC(=O)c1ccc(COc2ccccc2/C=N/O)o1,–,inactive: -21.8%
COc1ccccc1NC(=S)NCc1cccs1,–,inactive: 8.42%
Cc1onc(-c2c(F)cccc2Cl)c1C(=O)N1CCCCC1,–,inactive: -20.1%
CCCCN(C)CCCNC(=O)c1cc(=O)[nH]c2ccc(S(=O)(=O)N3CCCCC3C)cc12 (stereo unspecified),"inconclusive: 3.16 µM [inhibitor, full curve]",–
C[n+]1ccn(CC(=O)c2ccc(Cl)cc2)c1,"inconclusive: 15.8 µM [inhibitor, single point]",–
c1ccc2c(c1)OCCOCCOCCOCCOc1ccccc1OCCOCCOCCO2,"inconclusive: 0.251 µM [inhibitor, full curve, poor fit]",–
COc1ccc(C)cc1NC(=O)C1CCN(S(=O)(=O)c2ccc3c(c2)NC(=O)CO3)CC1,active: 12.6 µM,–
COc1cccc(OC)c1C(=O)OCC(=O)NC1CCCCCC1,"inconclusive: 12.6 µM [inhibitor, single point]",–
Cc1c(F)c(N2CCNC(C)C2)cc2c1c(=O)c(C(=O)O)cn2C1CC1 (stereo unspecified),"inconclusive: 7.08 µM [inhibitor, partial curve, poor fit]",–
COC(=O)CCC(=O)OC1(C)C(=O)C=C2C=C(C3CC3)N(CCCOC(C)C)C=C2C1=O (stereo unspecified),active: 2 µM,–
Cc1c(C(=O)N2CCC(C)CC2)oc2ccc3c(c12)C(O)CC1(CCCCC1)O3 (stereo unspecified),"inconclusive: 14.1 µM [inhibitor, partial curve, poor fit]",–

# Exported with tabs: 3 of the compounds above
SMILES	Potency	activity change, negative = inhibition
Cc1c(F)c(N2CCNC(C)C2)cc2c1c(=O)c(C(=O)O)cn2C1CC1 (stereo unspecified)	inconclusive: 7.08 µM [inhibitor, partial curve, poor fit]	–
COC(=O)CCC(=O)OC1(C)C(=O)C=C2C=C(C3CC3)N(CCCOC(C)C)C=C2C1=O (stereo unspecified)	active: 2 µM	–
Cc1c(C(=O)N2CCC(C)CC2)oc2ccc3c(c12)C(O)CC1(CCCCC1)O3 (stereo unspecified)	inconclusive: 14.1 µM [inhibitor, partial curve, poor fit]	–

# Continuation.

SMILES,Potency,"activity change, negative = inhibition"
CCOc1ccc(NC(=O)CC2C(=O)N(c3ccccc3)C(=O)N2CCOC)cc1 (stereo unspecified),–,inactive: -1.36%
COc1ccc(C(=O)/C=C/c2ccccc2)c(OC)c1,"inconclusive: 2.51 µM [activator, partial curve]",–
O=C(COc1cccc2ccccc12)Nc1ccc(Cl)cc1C(=O)O,–,inactive: -10%
OC1C2(Cc3ccccc3)CN3CCN(C2)CC1(Cc1ccccc1)C3 (stereo unspecified),active: 2 µM,–
COc1cccc(/C=N/N2CCN(C3c4ccccc4-c4ccccc43)CC2)c1O,"inconclusive: 11.2 µM [inhibitor, partial curve]",–
CCOC(=O)C(C)Sc1cc(CS(=O)(=O)c2ccccc2)nc(-c2ccccc2)n1 (stereo unspecified),"inconclusive: 14.1 µM [inhibitor, single point]",–
Nc1nc(C2CC2)c(Sc2sc(N)nc2C2CC2)s1,–,inactive: -10.8%
O=C(C[C@H]1C(=O)N(Cc2ccccc2)C[C@@H]1Cc1ccccc1)Nc1ccccc1,active: 11.2 µM,–
CC[N+]1(CC)CC2CCC(C)(C1)C2(C)C (stereo unspecified),"inconclusive: 8.91 µM [inhibitor, partial curve, poor fit]",–
CCN(C(C)=O)c1nnc(CSc2nc3ccccc3s2)s1,"inconclusive: 8.91 µM [activator, partial curve]",–
Cc1ccc(Nc2nc(N)c([N+](=O)[O-])c(NCc3ccco3)n2)cc1,"inconclusive: 15.8 µM [inhibitor, single point]",–
Cc1cc(=O)oc2cc(OCCc3ccccc3)ccc12,"inconclusive: 5.62 µM [activator, full curve]",–
CC(C)[C@H](NC(=O)N1CCn2c1nc1ccccc12)C(=O)N[C@H](C(=O)O)c1ccccc1,–,inactive: -7.59%
COc1cc2c(cc1OC)CN(Cc1cc(=O)oc3c(C)c(C)ccc13)CC2,"inconclusive: 14.1 µM [inhibitor, single point]",–
COCCNC(=O)c1cccc(OC2CCN(Cc3ccc(C(C)C)cc3)CC2)c1,active: 14.1 µM,–
O=C(CN1CCN(CCC(=O)Nc2ccccc2F)CC1)Nc1ccc(Cl)cc1,"inconclusive: 7.94 µM [inhibitor, partial curve, poor fit]",–
Cc1ccc(NC(=O)CN(C)C(=O)c2cccc(S(=O)(=O)NCc3ccco3)c2)cc1,–,inactive: -19.7%
CCOc1ccccc1NC(=O)C(C)SCc1ccccc1 (stereo unspecified),"inconclusive: 17.8 µM [inhibitor, partial curve]",–
Cc1nn2c(Nc3ccccc3)c3c(nc2c1-c1ccccc1)CCC3,active: 15.8 µM,–
COc1ccc(C2c3c(ncn(CCCN4CCOCC4)c3=N)Oc3ccc4ccccc4c32)cc1OC (stereo unspecified),active: 5.01 µM,–
CCOc1ccc2nc(C)cc(Nc3cccc([N+](=O)[O-])c3)c2c1,active: 2 µM,–
Cc1cc2c(c(=O)n1Cc1ccco1)C(c1cccnc1)C(C#N)=C(N)O2 (stereo unspecified),–,inactive: -11.5%
Cc1ccccc1C(=O)N1CCN(c2ccc(NC(=O)c3ccc([N+](=O)[O-])o3)cc2)CC1,active: 10 µM,–

# From PubChem BioAssay AID504850 (National Center for Advancing Translational Sciences (NCATS), 2011)
